The source of these data is PMC10418535.

Results are given in words; binding and its absence hold for the method and conditions named. Some binding calls cover weakened binding; strength is not graded here. Sequences can lack the tags named with a protein.

This assay concerns the target T1, SBP-Halotag-Crb3 (UniProt Q9BUF7).
T1 sequence: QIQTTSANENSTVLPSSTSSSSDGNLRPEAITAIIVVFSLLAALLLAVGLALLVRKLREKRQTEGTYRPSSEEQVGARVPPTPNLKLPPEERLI
The assay can be described thus: FRAP (fluorescence recovery after photobleaching); live confluent Eph4 cells at 37°C, 5% CO2; biotin withheld so that SBP-Halo-Crb3 is held at the ER by Streptavidin-KDEL; recovery of mApple-Pals1 compared with and without Crb3 retained at the ER, and with the recovery of SBP-Halo-Crb3.

B1: mApple-tagged Pals1 (protein, UniProt Q9JLB2 1-675)
chain: MTTSYMNGHVTEESDSGIKNLDLASPEEYPKHREMAVDCPGDLGTRMMPVRRSAQLERIRQQQEDMRRRREEEGKKQELDLNSSMRLKKLAQIPPKTGIDNPIFDTEEGIVLESPHYAVNILDVEDLFSSLKHIQHTLVDSQSQEDISLLLQLVQNRDFQNAFKIHNAVTVHMSKASPPFPLIANVQDLVQEVQTVLKPVHQKEGQELTALLNAPHIQALLLAHDKVAEQEMQLEPITDERVYESIGHYGGETVKIVRIEKARDIPLGATVRNEMDSVIISRIVKGGAAEKSGLLHEGDEVLEINGIEIRGKDVNEVFDLLSDMHGTLTFVLIPSQQIKPPPAKETVIHVKAHFDYDPSDDPYVPCRELGLSFQKGDILHVISQEDPNWWQAYREGDEDNQPLAGLVPGKSFQQQREAMKQTIEEDKEPEKSGKLWCAKKNKKKRKKVLYNANKNDDYDNEEILTYEEMSLYHQPANRKRPIILIGPQNCGQNELRQRLMNKEKDRFASAVPHTTRNRRDHEVAGRDYHFVSRQAFEADIAAGKFIEHGEFEKNLYGTSIDSVRQVINSGKICLLSLRTQSLKTLRNSDLKPYIIFIAPPSQERLRALLAKEGKNPKPEELREIIEKTREMEQNNGHYFDTAIVNSDLDKAYQELLRLINKLDTEPQWVPSTWLR
Take B1: the binding result is “binds”.
